No constants are given. Whether binding was seen depends on the method and setting. In cells and extracts the contact can be indirect. A yes stands for co-enrichment or nearness to the bait. Other partners may have been found.
Target: Srp19-CBP-2xFLAG (Cryptococcus neoformans var. grubii H99)
Experiment: affinity purification with mass spectrometry; tandem affinity purification (anti-FLAG M2 resin, then calmodulin resin) of the CBP-2xFLAG-tagged bait from C. neoformans lysate; two replicates for each bait; hits filtered against a purification from an untagged wild-type strain

B1: Srp72 (protein, UniProt J9VGD8 1-313)
chain: MAPPAKPTSTPKRKPFSPKPPRPAEERLPKLYRALTDQVDDGYFENAIKTCKKILALDASSQTAFQTLLFLHLQTDDYTSALSLLDHPSNEQSLDFERAYCLYRLHREKEALEVLKGLSEKGRKTDHLEAQILYRLGEYSQAQEIYEGMLADCDVSSPEHADIVTNLSATTAHLDFDTHGYHSHLSTTISSTSQTPMNTADLETIVPSLPTGWSSGGLAATVEKKTATVKAPEEKNERSRPRHKLPKGVVAGKEFTEDPERWIPFRQRLSYITAQSKKKGAKESMGTGFTQGSTGGHSAGSGGGGKSKKGKRK
- binding: binds
